Experimental data as given in article PMC7862700.
The entries are a selection whose mix differs from that of the whole data set. For some of these results: At the low end of the ranking, values are background and their order means little. Some of the results follow. For some of these results: The source does not settle which construct or isoform was used.

Protein sequences, listed by entry. Tags and fused reporters are not part of them. Lines headed by an entry give the natural chain unless they say otherwise; changes in a name come on top.
UniProt P32519: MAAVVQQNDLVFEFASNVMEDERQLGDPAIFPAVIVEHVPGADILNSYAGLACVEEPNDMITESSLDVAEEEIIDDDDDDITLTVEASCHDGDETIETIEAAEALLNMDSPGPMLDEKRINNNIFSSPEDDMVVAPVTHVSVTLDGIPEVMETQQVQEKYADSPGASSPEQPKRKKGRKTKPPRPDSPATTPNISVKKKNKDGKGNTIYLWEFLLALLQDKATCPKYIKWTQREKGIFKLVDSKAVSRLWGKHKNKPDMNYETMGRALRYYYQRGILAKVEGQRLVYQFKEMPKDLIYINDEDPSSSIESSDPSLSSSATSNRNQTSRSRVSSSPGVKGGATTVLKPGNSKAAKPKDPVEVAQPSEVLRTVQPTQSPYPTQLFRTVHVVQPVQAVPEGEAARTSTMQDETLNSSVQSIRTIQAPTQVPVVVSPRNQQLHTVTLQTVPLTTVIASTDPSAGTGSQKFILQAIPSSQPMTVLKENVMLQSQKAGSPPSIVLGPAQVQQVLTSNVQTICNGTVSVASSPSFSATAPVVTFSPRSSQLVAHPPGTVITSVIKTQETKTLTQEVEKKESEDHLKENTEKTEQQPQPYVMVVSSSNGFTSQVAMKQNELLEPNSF
UniProt P50549: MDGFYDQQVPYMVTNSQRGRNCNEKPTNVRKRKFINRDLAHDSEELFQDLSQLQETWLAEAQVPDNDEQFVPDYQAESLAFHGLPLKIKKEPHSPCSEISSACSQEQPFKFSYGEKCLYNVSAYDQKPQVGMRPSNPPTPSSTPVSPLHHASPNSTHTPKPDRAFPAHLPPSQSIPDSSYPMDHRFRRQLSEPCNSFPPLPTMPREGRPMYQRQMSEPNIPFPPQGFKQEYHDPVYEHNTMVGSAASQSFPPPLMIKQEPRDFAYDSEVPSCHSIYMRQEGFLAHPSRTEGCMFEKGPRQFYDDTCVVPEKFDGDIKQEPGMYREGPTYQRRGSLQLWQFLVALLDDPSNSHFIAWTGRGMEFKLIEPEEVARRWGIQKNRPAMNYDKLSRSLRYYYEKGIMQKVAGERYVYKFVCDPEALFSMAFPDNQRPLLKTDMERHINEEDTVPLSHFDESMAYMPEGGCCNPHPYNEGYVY

The sequences below were run against ELF1 (UniProt P32519) (assay: DAPPL (digital affinity profiling via proximity ligation, sequencing)). Settings: 10 mM Tris-HCl pH 7.5, 50 mM NaCl, 1 mM DTT, 4% glycerol, room temperature, 30 min; GST-TFs on glutathione beads, 16-mer random dsDNA library, 0.1% …; high values mean tight binding; double strand, one strand shown; scale: fold enrichment (6-mer frequency, TF over GST control).

| Sequence | binding signal |
| --- | --- |
| GTGCCC | 0.999 |
| ACGCGT | 0.988 |
| GCCTGC | 1.13 |
| TGGAAG | 0.902 |
| CCGTCT | 1.46 |
| ATGCCG | 1.09 |
| CGACGC | 1.16 |
| TACACA | 1.21 |
| GTCATT | 0.967 |
| AGCTGT | 0.966 |
| AGGTCC | 0.972 |
| TCCAAC | 1.25 |
| CTATCC | 1.38 |
| AGTATA | 0.941 |
| CCTAGC | 1.24 |
| CACGAT | 1.27 |
| GCGTTT | 1.08 |
| TCGTTT | 1.15 |
| GGTAAC | 0.999 |

| Sequence | binding signal |
| --- | --- |
| ATTAAA | 1.2 |
| ACGTAA | 1.07 |
| TGATGC | 1.64 |
| ACTATG | 1.21 |
| CAGCGC | 1.08 |
| TCTATC | 1.25 |
| GCCCAT | 1.06 |
| GTGGCC | 1.05 |
| CTGATT | 1.22 |
| GTTCCT | 1.72 |
| GCTATC | 1.14 |
| TAAGCA | 1.07 |
| GTCACG | 0.983 |
| ACGGCT | 1.08 |
| TATTAG | 0.992 |
| TCTCGT | 1.24 |
| CCCGGT | 0.997 |
| CCCAAA | 1.18 |

The sequences below were run against T1, ETV4 (UniProt P43268) in the same assay as above. Settings: 10 mM Tris-HCl pH 7.5, 50 mM NaCl, 1 mM DTT, 4% glycerol, room temperature, 30 min; GST-TFs on glutathione beads, 16-mer random dsDNA library, 0.1% …; high values mean tight binding; double strand, one strand shown; scale: fold enrichment (6-mer frequency, TF over GST control).
T1 sequence: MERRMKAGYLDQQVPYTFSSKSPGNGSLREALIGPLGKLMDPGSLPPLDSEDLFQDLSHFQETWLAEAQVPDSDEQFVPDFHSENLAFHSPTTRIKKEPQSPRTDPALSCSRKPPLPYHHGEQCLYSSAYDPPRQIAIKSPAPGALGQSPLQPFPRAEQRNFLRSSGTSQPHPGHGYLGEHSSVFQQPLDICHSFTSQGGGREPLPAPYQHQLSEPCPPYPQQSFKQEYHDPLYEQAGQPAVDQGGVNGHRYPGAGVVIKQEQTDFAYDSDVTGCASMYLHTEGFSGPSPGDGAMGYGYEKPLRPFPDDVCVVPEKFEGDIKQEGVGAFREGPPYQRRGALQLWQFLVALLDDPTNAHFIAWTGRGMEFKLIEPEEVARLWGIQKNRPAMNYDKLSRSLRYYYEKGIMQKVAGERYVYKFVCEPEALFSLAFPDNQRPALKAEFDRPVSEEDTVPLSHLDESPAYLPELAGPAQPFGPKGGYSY

| Sequence | binding signal |
| --- | --- |
| GTGCCC | 1.01 |
| ACGCGT | 0.978 |
| GCCTGC | 1.08 |
| TGGAAG | 0.946 |
| CCGTCT | 1.35 |
| ATGCCG | 1.12 |
| CGACGC | 1.12 |
| TACACA | 1.19 |
| GTCATT | 0.874 |
| AGCTGT | 1.03 |
| AGGTCC | 0.955 |
| TCCAAC | 1.23 |
| CTATCC | 1.32 |
| AGTATA | 0.924 |
| CCTAGC | 1.2 |
| CACGAT | 1.29 |
| GCGTTT | 1.08 |
| TCGTTT | 1.18 |
| GGTAAC | 0.957 |
| ATTAAA | 1.12 |

| Sequence | binding signal |
| --- | --- |
| ACGTAA | 1.06 |
| TGATGC | 1.64 |
| ACTATG | 1.31 |
| CAGCGC | 1.06 |
| TCTATC | 1.21 |
| GCCCAT | 1.08 |
| GTGGCC | 0.987 |
| CTGATT | 1.18 |
| GTTCCT | 1.57 |
| GCTATC | 1.03 |
| ACACGC | 1.13 |
| TAAGCA | 0.961 |
| GTCACG | 0.942 |
| GCTGCC | 1.09 |
| ACGGCT | 1.24 |
| TATTAG | 1.04 |
| TCTCGT | 1.2 |
| CCCGGT | 1.01 |
| CCCAAA | 1.09 |

What follows are sequences tested against ETV1 (UniProt P50549) in the same assay as above. Settings: 10 mM Tris-HCl pH 7.5, 50 mM NaCl, 1 mM DTT, 4% glycerol, room temperature, 30 min; GST-TFs on glutathione beads, 16-mer random dsDNA library, 0.1% …; high values mean tight binding; double strand, one strand shown; scale: fold enrichment (6-mer frequency, TF over GST control).

| Sequence | binding signal |
| --- | --- |
| GTGCCC | 0.925 |
| ACGCGT | 0.974 |
| GCCTGC | 1.18 |
| TGGAAG | 1.02 |
| CCGTCT | 1.38 |
| ATGCCG | 1.11 |
| CGACGC | 1.01 |
| TACACA | 1.2 |
| GTCATT | 0.926 |
| AGCTGT | 0.948 |
| AGGTCC | 1.05 |
| TCCAAC | 1.2 |
| CTATCC | 1.36 |
| AGTATA | 0.964 |
| CCTAGC | 1.13 |
| CACGAT | 1.28 |
| GCGTTT | 0.988 |
| TCGTTT | 1.18 |
| GGTAAC | 0.992 |
| ATTAAA | 1.18 |

| Sequence | binding signal |
| --- | --- |
| ACGTAA | 1.12 |
| TGATGC | 1.55 |
| ACTATG | 1.24 |
| CAGCGC | 0.862 |
| TCTATC | 1.16 |
| GCCCAT | 0.933 |
| GTGGCC | 0.972 |
| CTGATT | 1.27 |
| GTTCCT | 1.79 |
| GCTATC | 1.09 |
| ACACGC | 1.11 |
| TAAGCA | 0.962 |
| GTCACG | 1.1 |
| GCTGCC | 1.19 |
| ACGGCT | 1.05 |
| TATTAG | 1.12 |
| TCTCGT | 1.27 |
| CCCGGT | 1.07 |
| CCCAAA | 1.08 |
